# In PubChem BioAssay AID652054 (National Center for Advancing Translational Sciences (NCATS), 2013):
# By UniProt entry, the sequences of proteins in these tests, tags left out.
# UniProt P35462, whole entry, looked up: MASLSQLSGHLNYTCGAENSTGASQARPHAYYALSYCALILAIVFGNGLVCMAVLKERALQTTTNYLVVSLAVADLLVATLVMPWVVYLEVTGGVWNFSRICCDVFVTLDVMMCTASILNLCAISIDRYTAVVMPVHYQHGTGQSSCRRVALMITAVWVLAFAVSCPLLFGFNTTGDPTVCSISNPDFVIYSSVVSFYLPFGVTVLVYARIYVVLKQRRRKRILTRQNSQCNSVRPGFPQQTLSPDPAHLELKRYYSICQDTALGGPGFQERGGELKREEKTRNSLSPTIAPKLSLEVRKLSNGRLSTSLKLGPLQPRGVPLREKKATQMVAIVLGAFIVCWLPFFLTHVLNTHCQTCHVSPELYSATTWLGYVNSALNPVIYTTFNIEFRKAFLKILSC
# The whole screen tested about 360,000 compounds, of which about 9,100 (2.5%) were called active. This list was built around the results that the source calls inconclusive (neither active nor inactive); the mix of calls is not that of the screen. No stated cut-off is given here; in the data, active means max response below about -50%; inconclusive means no clear call, values can overlap the other calls; inactive means above that.
# Target: D(3) dopamine receptor (Homo sapiens) (UniProt P35462)
# Test: qHTS of D3 Dopamine Receptor Antagonist: qHTS
# Details: D3R cells, DiscoveRx beta-arrestin luminescence, antagonist mode; stronger effect = lower value
# How it was run: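 Cells expressing the human receptor were seeded at 1500 cells/well, incubated overnight at 37 degrees C in 5% CO2, then exposed to library compounds with dopamine controls for 90 minutes at 37 degrees C before luminescent detection.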
# On the % scale 0 is the no-effect control and ±100 the full control effect.
row,Structure (SMILES),"max response, negative = inhibition"
1,COc1ccc(-c2nc3ccccc3n2Cc2ccc(C)cc2)cc1,inconclusive: -30.4%
2,Cn1c(=O)[nH]c(=O)c2c1nc1n2CCN1Cc1ccccc1,inactive: -3.17%
3,COc1cc2c(cc1OC)C(COc1ccc(F)cc1)NCC2 (stereo unspecified),inconclusive: -47.1%
4,COC(=O)C(CCCCNC(=O)c1ccc([N+](=O)[O-])cc1)NC(=O)c1ccc([N+](=O)[O-])cc1 (stereo unspecified),inconclusive: -48.2%
5,Cc1cccc(N(CC(=O)NCc2ccco2)C(=O)CCC(=O)Nc2ccccn2)c1,inconclusive: -38.2%
6,CCN1CCN(C(c2cccs2)C(C)NC(=S)Nc2cccc(C)c2C)CC1 (stereo unspecified),inconclusive: -30.9%
7,CS(=O)(=O)N1CCN(c2ccccc2NC(=O)c2ccc(-c3ccc(Br)cc3)o2)CC1,inactive: -21.5%
8,COc1ccccc1NC(=O)Cc1cccs1,inconclusive: -31.8%
9,Cc1cc(NS(=O)(=O)c2ccc(NC(=O)COc3ccc(Br)cc3)cc2)nc(C)n1,inactive: -20%
10,Cc1cccc(-c2cccc(NC(=O)C3CCCN(C(=O)c4ocnc4C)C3)c2)c1 (stereo unspecified),inconclusive: -44.9%
11,c1ccc(C(c2ccccc2)c2noc(CN3CCN(CC4CC4)CC3)n2)cc1,active: -63%
12,Cc1ccc(NC(=O)CSc2nc3nc(C)cc(C)c3c(=O)[nH]2)cc1,inconclusive: -30.7%
13,Cc1cc(C)c2nc(NCCCNC(=S)NCCCN(C)C)c(C#N)cc2c1,inconclusive: -49.5%
14,C(=C\c1nccc2c1[nH]c1ccccc12)/c1ccccc1,inactive: -4.84%
15,Cc1ccc(S(=O)(=O)N2C3CCCCC3O[C@H]2CC(=O)OCc2ccccc2)cc1 (stereo partly specified),inactive: 16.2%
16,CCCCCCCCNS(=O)(=O)CCNCc1ccccc1OC,active: -51.3%
17,Cc1ccccc1OCCNCC(C)O (stereo unspecified),active: -56.6%
18,Cc1c(Cl)cccc1N1C(=O)C(N2C(=O)c3cccc([N+](=O)[O-])c3C2=O)C1c1cccs1 (stereo unspecified),inconclusive: -43.2%
19,O=C(Oc1ccc2c(c1)O/C(=C\c1ccncc1)C2=O)c1cccs1,inconclusive: -44.2%

row,Structure (SMILES),"max response, negative = inhibition"
1,COc1ccc(NC(=O)NC23CC4CC(CC(C4)C2)C3)cc1OC,inconclusive: -43.3%
2,Cn1c(CO)cnc1SCC(=O)c1ccc(F)cc1,inactive: -3.27%
3,Cc1nnc(Sc2cc(NCCO)c([N+](=O)[O-])c3nonc23)s1,active: -60.1%
4,Brc1ccc2ncc(Br)cc2c1,inconclusive: -42.5%
5,C[C@@H]1C[C@@H]2OC(=O)[C@]3(C)[C@H]2[C@@H](OC3(C)O)[C@]2(C)C(=O)C=C[C@H]12 (stereo partly specified),active: -53.2%
6,COc1ccc(/C=C/C(=O)NC2=NCCS2)cc1OC,inconclusive: -30.4%
7,S=C(Nc1ccccc1)Nc1ccc(Cl)cc1Cl,inconclusive: -34.4%
8,O=c1oc2ccccc2c(Nc2ccccc2O)c1[N+](=O)[O-],inconclusive: -37.9%
9,O=c1c(Sc2ccccc2)c(C(F)(F)F)[nH]n1-c1ccccc1,inconclusive: -46.2%
10,CCOc1cc(N2CCOCC2)c(OCC)cc1NS(=O)(=O)c1ccc(Cl)s1,inconclusive: -34.1%
11,CCOc1ccc(C(=O)NC(=S)Nc2ccccn2)cc1[N+](=O)[O-],inconclusive: -41.2%
12,Cc1nc(S(=O)(=O)N(C)c2ccccc2)c(C#N)c(C)c1Cl,inactive: 1.41%
13,CCOc1ccccc1-n1c(SCC(N)=O)nc2ccccc2c1=O,inconclusive: -47.7%
14,O=[N+]([O-])c1ccccc1/C=C/C=N/n1c(-c2cc(-c3ccccc3)n[nH]2)n[nH]c1=S,inconclusive: -37%
15,OC(CNc1ccnc2cc(Cl)ccc12)CNC1CCCCC1 (stereo unspecified),inconclusive: -30.8%
16,O=C1CC(c2cccs2)CC2=C1C(c1ccccc1)n1ncnc1N2 (stereo unspecified),inconclusive: -36.9%
17,CCc1ccc(NS(=O)(=O)c2ccc(OC)c3ncccc23)cc1,inactive: 5.66%
18,COC(=O)N/N=C/c1cc(OC)c(O)c([N+](=O)[O-])c1,inconclusive: -32.2%
19,CC(C)Nc1ccc(C(CC(N)=O)NC(=O)Cc2cccc3ccccc23)cc1[N+](=O)[O-] (stereo unspecified),inconclusive: -31.1%

# 4 entries out of the list, ordered by heavy-atom count, ascending:
row,Structure (SMILES),"max response, negative = inhibition"
2,Cn1c(CO)cnc1SCC(=O)c1ccc(F)cc1,inactive: -3.27%
3,Cc1nnc(Sc2cc(NCCO)c([N+](=O)[O-])c3nonc23)s1,active: -60.1%
11,CCOc1ccc(C(=O)NC(=S)Nc2ccccn2)cc1[N+](=O)[O-],inconclusive: -41.2%
13,CCOc1ccccc1-n1c(SCC(N)=O)nc2ccccc2c1=O,inconclusive: -47.7%

# (further entries)

row,Structure (SMILES),"max response, negative = inhibition"
1,CCOC(=O)Nc1ccc2nc3n(c(=O)c2c1)CCCCC3,inactive: 9.99%
2,COc1ccc(-c2c/c(=N\c3nc(-c4ccccc4)c(C)s3)c3ccccc3o2)cc1O,inconclusive: -48.1%
3,COc1ccc(-c2cc(C3CCN(c4ncccc4[N+](=O)[O-])CC3)[nH]n2)cc1,inconclusive: -31.5%
4,CN(C)CCCN(C(=O)c1ccc(C(=O)c2ccccc2)cc1)c1nc2ccc(F)cc2s1,inconclusive: -39.1%
5,O=C(CSCc1ccc(Cl)cc1)N1CCN(Cc2ccc3c(c2)OCO3)CC1,inconclusive: -36.3%
6,CCn1c(C)nc2cc(C(=O)NNC(=S)Nc3ccc(OC)cc3)ccc21,inconclusive: -32.2%
7,COc1ccc(CCNC(=O)C2CCN(Cc3nc(-c4ccccc4C)oc3C)CC2)cc1OC,inconclusive: -38.3%
8,Cc1ccc(-c2[nH]nc(N)c2N=Nc2cccc(Cl)c2C)cc1,inactive: 2.65%
9,CC(Sc1nc2ccccc2c(=O)n1C)C(=O)N(C)C1CCCCC1 (stereo unspecified),inactive: -4.37%
10,O=C(COC(=O)CCS(=O)(=O)c1ccccc1)Nc1cc(S(=O)(=O)N2CCCCC2)ccc1Cl,inactive: -14.8%
11,O=C(Cn1nc(-c2ccc(Cl)cc2)ccc1=O)NCCCN1CCN(Cc2ccccc2)CC1,inconclusive: -42.3%
12,O=C(NCCN1CCCC1)c1ccc(Cl)cc1,active: -98.4%
13,CCNC(=S)NC1CC2CCCC(C1)N2Cc1ccc(C)cc1 (stereo unspecified),active: -118%
14,CCOC(=O)c1ccc(NC(=S)N2CCSC2c2ccc(OC)cc2)cc1 (stereo unspecified),inconclusive: -31.2%
15,CCOc1ccc(C(=O)NCCc2cnc[nH]2)cc1OCC,inconclusive: -44.7%
16,Cc1oc(-c2cccc(F)c2)nc1CN1CCCN(C(=O)c2ccco2)CC1,active: -61.5%
17,O=[N+]([O-])c1ccccc1Nc1nc(-c2cccnc2)cs1,inactive: -6.25%
18,CCOC(=O)N1CCN(c2c(N3CCN(c4cccc(C(F)(F)F)c4)CC3)c(=O)c2=O)CC1,inactive: 17%
